Source: the supplement of paper PMC12823440, “Inhibitors supercharge kinase turnover through native proteolytic circuits” (Nature, 2025)
Structures can show the parent of a compound that is named as a salt. The list shows a part of the results. Hit calls seldom repeat between salt and free forms of one compound.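 In K562 cells expressing nanoluciferase-fused kinases, luminescence was recorded at 4 h intervals between 2 and 18 h, normalized as percent of control with DMSO at 100% and a positive control at 0%. A significant (2 sigma) signal drop marks a time point as decreased. The authors' rule for a hit is not shown and takes in more than the number of time points.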

Chains of the proteins cited; added tags and fusions are not shown. Lines headed by an entry give the natural chain unless they say otherwise; changes in a name come on top.
UniProt P28482, whole entry: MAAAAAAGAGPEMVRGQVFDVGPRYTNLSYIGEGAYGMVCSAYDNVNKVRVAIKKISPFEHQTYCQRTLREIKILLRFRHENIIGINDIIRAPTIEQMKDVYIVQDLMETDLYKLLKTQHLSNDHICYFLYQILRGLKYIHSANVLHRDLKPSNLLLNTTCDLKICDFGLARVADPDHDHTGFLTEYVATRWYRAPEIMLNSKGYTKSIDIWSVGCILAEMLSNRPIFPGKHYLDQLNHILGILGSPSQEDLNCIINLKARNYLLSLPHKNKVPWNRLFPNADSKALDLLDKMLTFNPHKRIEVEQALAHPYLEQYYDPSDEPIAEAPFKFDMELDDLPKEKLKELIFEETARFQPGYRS
UniProt P31152, whole entry: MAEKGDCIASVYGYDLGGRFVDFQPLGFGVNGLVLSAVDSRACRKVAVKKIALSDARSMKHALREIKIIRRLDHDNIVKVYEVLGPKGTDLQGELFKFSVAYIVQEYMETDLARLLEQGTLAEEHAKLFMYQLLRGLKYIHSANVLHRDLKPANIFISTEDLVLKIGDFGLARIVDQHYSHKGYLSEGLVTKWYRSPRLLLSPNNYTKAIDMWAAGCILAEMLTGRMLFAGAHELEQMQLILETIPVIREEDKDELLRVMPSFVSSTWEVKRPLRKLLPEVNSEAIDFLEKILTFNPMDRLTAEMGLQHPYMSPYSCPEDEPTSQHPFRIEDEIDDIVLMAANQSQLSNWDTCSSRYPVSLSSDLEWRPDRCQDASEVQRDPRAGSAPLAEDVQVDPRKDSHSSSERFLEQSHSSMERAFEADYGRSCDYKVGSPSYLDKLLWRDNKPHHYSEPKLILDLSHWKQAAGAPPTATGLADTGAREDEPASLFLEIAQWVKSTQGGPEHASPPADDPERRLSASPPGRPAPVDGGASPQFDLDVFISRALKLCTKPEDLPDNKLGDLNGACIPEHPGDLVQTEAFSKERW
UniProt P49137, whole entry, looked up: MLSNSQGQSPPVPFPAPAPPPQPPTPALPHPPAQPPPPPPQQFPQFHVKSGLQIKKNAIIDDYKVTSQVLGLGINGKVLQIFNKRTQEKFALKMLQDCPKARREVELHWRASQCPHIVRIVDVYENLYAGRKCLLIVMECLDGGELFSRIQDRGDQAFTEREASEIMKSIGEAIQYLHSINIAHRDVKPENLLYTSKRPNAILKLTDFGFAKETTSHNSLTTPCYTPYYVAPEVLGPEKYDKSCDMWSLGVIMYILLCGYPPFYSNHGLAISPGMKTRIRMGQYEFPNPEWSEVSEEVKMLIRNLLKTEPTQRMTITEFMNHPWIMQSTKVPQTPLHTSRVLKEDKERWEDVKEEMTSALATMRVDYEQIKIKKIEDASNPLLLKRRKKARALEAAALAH
UniProt Q9BUB5: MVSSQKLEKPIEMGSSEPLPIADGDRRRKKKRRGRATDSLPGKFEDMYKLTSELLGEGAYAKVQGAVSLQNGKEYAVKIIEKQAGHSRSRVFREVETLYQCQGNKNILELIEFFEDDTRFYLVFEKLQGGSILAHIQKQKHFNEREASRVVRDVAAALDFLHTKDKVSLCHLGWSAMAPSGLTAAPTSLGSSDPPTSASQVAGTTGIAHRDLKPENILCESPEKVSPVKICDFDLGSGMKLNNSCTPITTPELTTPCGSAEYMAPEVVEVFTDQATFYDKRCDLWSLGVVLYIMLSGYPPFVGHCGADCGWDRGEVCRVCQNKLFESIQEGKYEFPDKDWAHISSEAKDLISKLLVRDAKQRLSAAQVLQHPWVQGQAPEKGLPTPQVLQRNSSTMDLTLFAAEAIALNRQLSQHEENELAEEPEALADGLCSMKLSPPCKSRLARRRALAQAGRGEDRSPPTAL
UniProt Q16620, whole entry, looked up: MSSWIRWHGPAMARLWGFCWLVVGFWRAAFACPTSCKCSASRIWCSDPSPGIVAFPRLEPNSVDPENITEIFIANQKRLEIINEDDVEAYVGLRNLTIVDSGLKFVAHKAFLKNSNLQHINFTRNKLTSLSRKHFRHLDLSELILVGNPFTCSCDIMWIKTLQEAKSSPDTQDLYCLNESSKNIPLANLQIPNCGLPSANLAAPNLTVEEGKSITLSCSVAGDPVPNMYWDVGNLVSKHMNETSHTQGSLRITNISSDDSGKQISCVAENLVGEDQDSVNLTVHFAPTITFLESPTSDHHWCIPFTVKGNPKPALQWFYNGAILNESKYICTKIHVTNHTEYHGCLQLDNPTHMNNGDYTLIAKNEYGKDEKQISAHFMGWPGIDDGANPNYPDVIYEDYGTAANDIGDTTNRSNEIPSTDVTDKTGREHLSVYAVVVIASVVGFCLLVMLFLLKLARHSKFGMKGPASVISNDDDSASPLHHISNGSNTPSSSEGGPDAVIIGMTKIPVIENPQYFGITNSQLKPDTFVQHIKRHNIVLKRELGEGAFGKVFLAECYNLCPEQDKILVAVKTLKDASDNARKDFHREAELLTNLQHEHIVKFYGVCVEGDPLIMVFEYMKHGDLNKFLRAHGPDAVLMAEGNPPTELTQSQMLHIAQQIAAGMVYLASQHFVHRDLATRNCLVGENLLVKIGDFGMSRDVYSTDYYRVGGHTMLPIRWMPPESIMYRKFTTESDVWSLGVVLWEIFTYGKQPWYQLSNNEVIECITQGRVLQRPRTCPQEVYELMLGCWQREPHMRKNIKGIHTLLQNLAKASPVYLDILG
UniProt Q16288, whole entry, looked up: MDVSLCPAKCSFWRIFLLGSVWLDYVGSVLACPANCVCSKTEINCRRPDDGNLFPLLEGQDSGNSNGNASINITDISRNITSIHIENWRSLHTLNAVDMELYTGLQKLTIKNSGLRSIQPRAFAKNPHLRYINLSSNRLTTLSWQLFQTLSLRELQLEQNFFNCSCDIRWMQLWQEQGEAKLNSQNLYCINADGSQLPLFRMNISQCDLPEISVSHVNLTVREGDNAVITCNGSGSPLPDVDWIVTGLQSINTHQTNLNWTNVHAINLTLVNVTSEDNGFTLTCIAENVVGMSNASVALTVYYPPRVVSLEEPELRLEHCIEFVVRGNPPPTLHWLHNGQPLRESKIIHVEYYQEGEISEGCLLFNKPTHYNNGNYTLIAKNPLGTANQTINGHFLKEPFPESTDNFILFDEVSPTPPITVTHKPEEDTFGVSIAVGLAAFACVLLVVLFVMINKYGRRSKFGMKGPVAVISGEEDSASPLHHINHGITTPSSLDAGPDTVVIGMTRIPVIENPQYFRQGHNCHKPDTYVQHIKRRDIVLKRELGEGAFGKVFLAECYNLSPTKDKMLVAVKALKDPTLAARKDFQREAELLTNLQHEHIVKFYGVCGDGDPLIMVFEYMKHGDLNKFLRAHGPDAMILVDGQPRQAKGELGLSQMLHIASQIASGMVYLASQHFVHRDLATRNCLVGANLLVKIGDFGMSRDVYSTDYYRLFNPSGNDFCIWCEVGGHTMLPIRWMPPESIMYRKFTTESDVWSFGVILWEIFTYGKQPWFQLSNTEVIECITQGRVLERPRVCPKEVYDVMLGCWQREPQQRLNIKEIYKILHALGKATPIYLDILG
UniProt O96013: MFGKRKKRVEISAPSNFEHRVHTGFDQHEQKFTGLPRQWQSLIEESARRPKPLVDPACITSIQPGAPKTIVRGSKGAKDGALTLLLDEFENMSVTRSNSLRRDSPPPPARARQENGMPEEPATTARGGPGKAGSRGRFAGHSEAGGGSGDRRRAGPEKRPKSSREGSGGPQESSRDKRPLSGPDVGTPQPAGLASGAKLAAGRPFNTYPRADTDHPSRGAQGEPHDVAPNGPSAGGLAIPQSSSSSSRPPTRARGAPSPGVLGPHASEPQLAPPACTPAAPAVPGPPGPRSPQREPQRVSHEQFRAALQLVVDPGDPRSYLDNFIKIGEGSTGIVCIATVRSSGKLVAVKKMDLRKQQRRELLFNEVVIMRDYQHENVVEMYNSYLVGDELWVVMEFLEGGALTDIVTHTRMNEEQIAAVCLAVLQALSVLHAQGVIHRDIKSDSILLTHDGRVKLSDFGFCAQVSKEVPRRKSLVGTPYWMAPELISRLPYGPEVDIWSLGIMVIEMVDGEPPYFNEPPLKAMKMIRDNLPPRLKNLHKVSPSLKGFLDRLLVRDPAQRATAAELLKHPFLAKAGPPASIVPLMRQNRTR
UniProt Q96KB5: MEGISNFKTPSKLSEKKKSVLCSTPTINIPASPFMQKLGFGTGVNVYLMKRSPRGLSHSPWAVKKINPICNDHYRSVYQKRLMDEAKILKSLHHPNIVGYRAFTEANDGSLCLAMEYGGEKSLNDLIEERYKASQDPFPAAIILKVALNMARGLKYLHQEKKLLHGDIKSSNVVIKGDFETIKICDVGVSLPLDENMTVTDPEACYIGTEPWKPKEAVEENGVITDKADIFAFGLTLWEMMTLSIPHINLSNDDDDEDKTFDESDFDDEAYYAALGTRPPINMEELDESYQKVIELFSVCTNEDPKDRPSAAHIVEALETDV
UniProt P09619, whole entry: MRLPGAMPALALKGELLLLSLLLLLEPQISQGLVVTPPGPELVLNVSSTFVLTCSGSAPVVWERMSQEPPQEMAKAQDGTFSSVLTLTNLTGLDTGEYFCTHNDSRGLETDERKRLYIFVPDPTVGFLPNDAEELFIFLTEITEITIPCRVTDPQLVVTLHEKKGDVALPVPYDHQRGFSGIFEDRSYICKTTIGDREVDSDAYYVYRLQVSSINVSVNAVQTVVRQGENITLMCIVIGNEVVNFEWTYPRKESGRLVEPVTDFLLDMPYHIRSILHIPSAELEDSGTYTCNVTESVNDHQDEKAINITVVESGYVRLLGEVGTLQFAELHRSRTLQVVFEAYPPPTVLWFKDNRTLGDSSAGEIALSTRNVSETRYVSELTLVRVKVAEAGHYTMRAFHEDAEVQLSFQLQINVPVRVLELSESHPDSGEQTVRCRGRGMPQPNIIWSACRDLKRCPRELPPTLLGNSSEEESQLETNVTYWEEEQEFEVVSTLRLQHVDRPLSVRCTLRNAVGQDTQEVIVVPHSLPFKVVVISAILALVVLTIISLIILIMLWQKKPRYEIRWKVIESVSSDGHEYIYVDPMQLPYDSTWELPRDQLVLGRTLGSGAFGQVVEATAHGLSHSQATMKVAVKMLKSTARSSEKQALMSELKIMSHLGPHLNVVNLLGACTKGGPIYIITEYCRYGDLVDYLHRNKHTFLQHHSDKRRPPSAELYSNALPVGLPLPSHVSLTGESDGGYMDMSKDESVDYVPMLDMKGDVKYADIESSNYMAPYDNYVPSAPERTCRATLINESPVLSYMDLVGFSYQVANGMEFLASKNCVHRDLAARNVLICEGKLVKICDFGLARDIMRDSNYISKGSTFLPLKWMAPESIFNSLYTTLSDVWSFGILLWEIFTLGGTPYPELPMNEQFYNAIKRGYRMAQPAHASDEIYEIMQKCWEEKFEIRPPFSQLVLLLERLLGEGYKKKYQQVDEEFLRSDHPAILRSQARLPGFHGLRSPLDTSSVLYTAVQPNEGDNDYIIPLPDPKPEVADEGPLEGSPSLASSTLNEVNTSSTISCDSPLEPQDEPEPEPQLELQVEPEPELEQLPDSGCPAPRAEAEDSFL
UniProt Q15118, whole entry, looked up: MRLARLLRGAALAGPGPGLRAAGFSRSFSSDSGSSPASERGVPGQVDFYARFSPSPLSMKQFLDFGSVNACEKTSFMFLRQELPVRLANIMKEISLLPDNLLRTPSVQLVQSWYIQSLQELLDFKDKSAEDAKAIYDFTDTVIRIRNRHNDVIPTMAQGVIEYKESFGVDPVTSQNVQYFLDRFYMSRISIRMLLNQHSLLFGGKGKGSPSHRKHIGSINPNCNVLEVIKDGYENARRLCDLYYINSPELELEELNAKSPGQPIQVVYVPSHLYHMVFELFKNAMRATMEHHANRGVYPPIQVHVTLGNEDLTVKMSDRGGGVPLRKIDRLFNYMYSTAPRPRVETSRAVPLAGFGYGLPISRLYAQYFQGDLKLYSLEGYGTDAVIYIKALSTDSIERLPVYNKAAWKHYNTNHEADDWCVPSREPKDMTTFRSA

Experiments:
Experiment in all cases: kinase-Nluc reporter destabilization hit call (1 = scored as downregulated) (binary); higher = compound decreases kinase abundance
Settings in all cases: K562; 2-18 h
[1] = molecular target: MAPK1 (UniProt P28482)
[2] = molecular target: MAPK4 (UniProt P31152)
[3] = molecular target: MAPKAPK2 (UniProt P49137)
[4] = molecular target: MKNK1 (UniProt Q9BUB5)
[5] = molecular target: NTRK2 (UniProt Q16620)
[6] = molecular target: NTRK3 (UniProt Q16288)
[7] = molecular target: PAK4 (UniProt O96013)
[8] = molecular target: PBK (UniProt Q96KB5)
[9] = molecular target: PDGFRB (UniProt P09619)
[10] = molecular target: PDK1 (UniProt Q15118)

Measured: kinase-Nluc reporter destabilization hit call

CCN1CCN(Cc2cnc(Nc3cc(-c4cc(F)c5nc(C)n(C(C)C)c5c4)c(F)cn3)nc2)CC1 (10 µM)
inactive: [1] 0 | [2] 0 | [3] 0 | [4] 0 | [5] 0 | [6] 0 | [7] 0 | [8] 0 | [9] 0 | [10] 0

CC(C)=CC[C@@H](O)C1=CC(=O)c2c(O)ccc(O)c2C1=O [Shikonin] (10 µM)
inactive: [1] 0 | [2] 0 | [3] 0 | [4] 0 | [5] 0 | [6] 0 | [7] 0 | [8] 0 | [9] 0 | [10] 0

Cc1cccc(-c2[nH]ncc2-c2ccnc3ccccc23)n1 (10 µM)
inactive: [1] 0 | [2] 0 | [3] 0 | [4] 0 | [5] 0 | [6] 0 | [7] 0 | [8] 0 | [9] 0 | [10] 0

COc1ccc2c(Oc3ccc4c(C(=O)Nc5ccccc5N)cccc4c3)ccnc2c1 [Chiauranib] (10 µM)
inactive: [1] 0 | [2] 0 | [3] 0 | [4] 0 | [5] 0 | [6] 0 | [7] 0 | [8] 0 | [9] 0 | [10] 0

COc1ccc(Nc2ncc(C(F)(F)F)c(NC3CC3)n2)cc1OC (10 µM)
inactive: [1] 0 | [2] 0 | [3] 0 | [4] 0 | [5] 0 | [6] 0 | [7] 0 | [8] 0 | [9] 0 | [10] 0

O=C1Nc2ccc(CN3C(=O)CSC3=O)cc2/C1=C/c1cc(CN2CCOCC2)c[nH]1 (10 µM)
inactive: [1] 0 | [2] 0 | [3] 0 | [4] 0 | [5] 0 | [6] 0 | [7] 0 | [8] 0 | [9] 0 | [10] 0

Nc1nc(N)c2nc(-c3cccc(O)c3)c(-c3cccc(O)c3)nc2n1 (10 µM)
inactive: [1] 0 | [2] 0 | [3] 0 | [4] 0 | [5] 0 | [6] 0 | [7] 0 | [8] 0 | [9] 0 | [10] 0

N#Cc1cnc2c(Cl)cc(NCc3cn(CCN4CCCCCC4)nn3)cc2c1Nc1ccc(F)c(Cl)c1 [Cot inhibitor-1] (10 µM)
inactive: [1] 0 | [2] 0 | [3] 0 | [4] 0 | [5] 0 | [6] 0 | [7] 0 | [8] 0 | [9] 0 | [10] 0

NCCOc1ccc(Cl)cc1C(=O)Nc1ccc([N+](=O)[O-])cc1Cl [HJC0152 hydrochloride] (2 µM)
inactive: [1] 0 | [2] 0 | [3] 0 | [4] 0 | [5] 0 | [6] 0 | [7] 0 | [8] 0 | [9] 0 | [10] 0

O=C(NCCO)c1cc(C(=O)NCCO)cc(C(=O)NCCO)c1 (10 µM)
inactive: [1] 0 | [2] 0 | [3] 0 | [4] 0 | [5] 0 | [6] 0 | [7] 0 | [8] 0 | [9] 0 | [10] 0

O=C1Nc2ccc(I)cc2/C1=C/c1cc(Br)c(O)c(Br)c1 (10 µM)
inactive: [1] 0 | [2] 0 | [3] 0 | [4] 0 | [5] 0 | [6] 0 | [7] 0 | [8] 0 | [9] 0 | [10] 0

CCNC(=O)C#Cc1ccc2c(C(=Nc3ccc(CN(C)C)cc3)c3ccccc3)c(O)[nH]c2c1 (2.5 µM)
inactive: [1] 0 | [2] 0 | [3] 0 | [4] 0 | [5] 0 | [6] 0 | [7] 0 | [8] 0 | [9] 0 | [10] 0

O=c1[nH]ccc2nc(-c3ccc(CN4CCC(c5nc(-c6ccccn6)n[nH]5)CC4)cc3)c(-c3ccccc3)cc12 (10 µM)
inactive: [1] 0 | [2] 0 | [3] 0 | [4] 0 | [5] 0 | [6] 0 | [7] 0 | [8] 0 | [9] 0 | [10] 0

CC(C)n1ncnc1-c1cn2c(n1)-c1ccc(O[C@@H](C)C(N)=O)cc1OCC2 (10 µM)
inactive: [1] 0 | [2] 0 | [3] 0 | [4] 0 | [5] 0 | [6] 0 | [7] 0 | [8] 0 | [9] 0 | [10] 0

2 neighbouring entries already listed:
Cc1cccc(-c2[nH]ncc2-c2ccnc3ccccc23)n1 (10 µM)
inactive: [1] 0 | [2] 0 | [3] 0 | [4] 0 | [5] 0 | [6] 0 | [7] 0 | [8] 0 | [9] 0 | [10] 0

COc1ccc2c(Oc3ccc4c(C(=O)Nc5ccccc5N)cccc4c3)ccnc2c1 [Chiauranib] (10 µM)
inactive: [1] 0 | [2] 0 | [3] 0 | [4] 0 | [5] 0 | [6] 0 | [7] 0 | [8] 0 | [9] 0 | [10] 0
